{
  "sequences": {"note": "Sequences of proteins named here, by UniProt entry; tags and fusion partners are left off.", "UniProt Q03431, whole entry, looked up": "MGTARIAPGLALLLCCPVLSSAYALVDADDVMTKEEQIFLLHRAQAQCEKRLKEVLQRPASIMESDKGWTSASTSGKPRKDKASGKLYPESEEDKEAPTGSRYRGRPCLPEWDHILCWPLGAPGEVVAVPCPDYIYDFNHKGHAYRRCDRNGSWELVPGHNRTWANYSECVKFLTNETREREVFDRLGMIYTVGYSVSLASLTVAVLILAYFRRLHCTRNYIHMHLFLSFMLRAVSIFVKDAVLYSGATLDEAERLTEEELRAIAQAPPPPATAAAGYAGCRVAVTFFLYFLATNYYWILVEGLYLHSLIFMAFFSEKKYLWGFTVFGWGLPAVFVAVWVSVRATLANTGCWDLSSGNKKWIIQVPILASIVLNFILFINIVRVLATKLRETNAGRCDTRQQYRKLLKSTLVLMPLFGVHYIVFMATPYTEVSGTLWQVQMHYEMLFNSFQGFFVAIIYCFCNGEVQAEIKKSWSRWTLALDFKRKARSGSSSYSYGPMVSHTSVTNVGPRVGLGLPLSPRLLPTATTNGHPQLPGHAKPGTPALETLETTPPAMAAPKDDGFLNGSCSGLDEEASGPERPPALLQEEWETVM"},
  "source": "PubChem BioAssay AID743266",
  "about": "(National Center for Advancing Translational Sciences (NCATS), 2014)",
  "note": "Screen size: about 410,000 compounds; about 310 (0.076%) were called active. The inconclusive results got no clear call from the source; some entries with a clear call stand among them for comparison. The call rests on the fitted dose curve; in most records, active means well fitted activation curve with a large enough effect; inconclusive means small, poorly fitted or top-dose-only effect, or another doubt; inactive means no such curve, though single readings can be large or run the other way. Where the call is inconclusive, the potency comes from a doubtful curve fit. Potency means the concentration at half of the fitted maximal effect.",
  "data": [
    {"biological_target": "Parathyroid hormone/parathyroid hormone-related peptide receptor (Homo sapiens) (UniProt Q03431)", "assay": "qHTS for PTHR1 Agonists: Primary Screen; further: nearly all actives have a fitted effect of over 55% in size", "details": "HEK293 GP2 PTHR1 cells, GloSensor cAMP luminescence, 1 h; activation: at 115 µM (top of the series) unless noted; series mostly up to 115 µM", "outline": "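HEK-293-derived GP2 cells expressing PTHR1 and a GloSensor cAMP reporter, 3,000/well, plated overnight, given luciferin plus IBMX (each 0.5 mM as added) for 1 h at 37 °C, then compound for 1 h at 37 °C. Luminescence was read after 15 min at room temperature.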", "values": [
      {"molecule": "CCNc1nc(NC(C)C)nc(Oc2ccc(=O)n(C)n2)n1", "activation": "inactive: -50.7%"},
      {"molecule": "Cc1cccc(NC(=O)c2nc[nH]c2C(=O)N[C@@H](C)c2ccccc2)c1", "activation": "inconclusive: 34.9% [activator]"},
      {"molecule": "O=C(CN1CCN(S(=O)(=O)c2ccc(Cl)s2)CC1)N1CCCCC1", "activation": "inconclusive: -42.8% [activator]"},
      {"molecule": "CC1(C)CC2CC(C)(CN2C(=O)COC(=O)c2cccc(O)c2)C1", "note": "(configuration not stated)", "Potency": "inconclusive: 56.2 µM [activator, single point]"},
      {"molecule": "Cn1c(=O)cc(C(=O)N/N=C/c2ccc(Cl)cc2)[nH]c1=O", "Potency": "inconclusive: 112 µM [activator, single point]"},
      {"molecule": "CC(=O)NC(NC(=S)Nc1ccc(C)cc1C)C(Cl)(Cl)Cl", "note": "(configuration not stated)", "activation": "inconclusive: 21.4% [activator]"},
      {"molecule": "COc1cc2c(C(=O)Nc3ccc(C)cc3Br)cn(C)c(=O)c2cc1OC", "Potency": "inconclusive: 44.7 µM [activator, partial curve, poor fit]"},
      {"molecule": "CCC(=O)OCc1cnc(C)c2oc(=O)c(C(=O)Nc3ccccc3C(F)(F)F)cc12", "Potency": "inconclusive: 28.2 µM [activator, single point]"},
      {"molecule": "Cc1ccc(OCCCSc2n[nH]c(N)n2)cc1", "activation": "inconclusive: -32.8% [activator]"},
      {"molecule": "COc1ccc2c(c1)CCc1c(C(=O)N(C)c3ccccc3)noc1-2", "activation": "inactive: -39%"},
      {"molecule": "Cc1ccc(C)n1-c1c(C(=O)NCCCN2CCN(c3ccc(F)cc3)CC2)sc2ncccc12", "activation": "inactive: -11.8%"},
      {"molecule": "O=C1c2cccnc2C(=O)N1Cc1ccc(S(=O)(=O)NCc2ccco2)cc1", "outcome": "inactive"},
      {"molecule": "CC(=O)Nc1ccc(S(=O)(=O)N2CCC(N3CCCCCC3)CC2)cc1", "Potency": "inconclusive: 100 µM [activator, partial curve, poor fit]"},
      {"molecule": "CCc1c(C)c2ccc(OCC(=O)NCC3CCC(C(=O)O)CC3)c(C)c2oc1=O", "note": "(configuration not stated)", "Potency": "inconclusive: 44.7 µM [activator, single point]"},
      {"molecule": "Cc1ccc(-c2nnc(SCC(=O)NC3CCCC3)n2C)cc1", "outcome": "inactive"},
      {"molecule": "COC(=O)c1ccc(NC(=O)CCc2nnc3ccc(NCc4ccco4)nn23)cc1", "Potency": "inconclusive: 89.1 µM [activator, partial curve, poor fit]"},
      {"molecule": "Cc1c(Cl)sn(-c2ccc(Cl)cc2)c1=O", "activation": "inactive: -42.6%"},
      {"molecule": "CN(Cc1nc2ccccc2c(=O)[nH]1)C(=O)c1cc(C2CC2)nn1-c1ccccc1", "activation": "inactive: -19.1%"},
      {"molecule": "O=C1CC(N2CCN(c3ccccn3)CC2)C(=O)N1c1ccc(F)cc1", "note": "(configuration not stated)", "Potency": "inconclusive: 100 µM [activator, partial curve, poor fit]"},
      {"molecule": "CCc1nnc2c(NCCc3ccc(OC)c(OC)c3)nc3ccccc3n12", "activation": "inconclusive: 31.6% [activator]"},
      {"molecule": "COC(=O)c1cc(S(=O)(=O)NCc2ccc(S(N)(=O)=O)cc2)oc1C", "Potency": "inconclusive: 141 µM [activator, single point]"},
      {"molecule": "O=C(CN1C(=O)CSc2ccccc21)NC1CCCC1", "Potency": "inconclusive: 50.1 µM [activator, partial curve, poor fit]"},
      {"molecule": "S=C(NCCCN1CCOCC1)Nc1ccc(Nc2ccccc2)cc1", "activation": "inactive: -5.34%"},
      {"molecule": "Cc1ccc(S(=O)(=O)N2CCC(C(=O)N[C@H](C(=O)NC3CCS(=O)(=O)C3)C(C)C)CC2)cc1", "note": "(some centres not stated)", "Potency": "inconclusive: 3.16 µM [activator, single point]"},
      {"molecule": "COc1cc(/C=N/NC(=S)Nc2cccc(C(=O)O)c2)cc(OC)c1OC", "activation": "inconclusive: 51.6% [activator]"},
      {"molecule": "Cc1ccc(CSC2=NCCN2S(=O)(=O)c2ccc(F)cc2)cc1", "activation": "inconclusive: -32.5% [activator]"},
      {"molecule": "Cc1onc(-c2c(Cl)cccc2Cl)c1C(=O)N1CCN(c2ccccc2)CC1", "activation": "inactive: -31.1%"},
      {"molecule": "CC1CN(C(=O)N2CCC(C(=O)NCCC3=CCCCC3)CC2)c2ccccc2O1", "note": "(configuration not stated)", "Potency": "inconclusive: 126 µM [activator, single point]"},
      {"molecule": "CC(C)C[C@H]1CN(CCCC[C@@H]2CNC(=O)C(=O)N2CCc2ccccc2)C(=O)C(=O)N1CCc1ccc(O)cc1", "activation": "inconclusive: 39.8% [activator]"},
      {"molecule": "O=C(CSc1nnc(-c2cccs2)o1)Oc1ccc(Cl)cc1", "Potency": "inconclusive: 126 µM [activator, single point]"},
      {"molecule": "O=[N+]([O-])c1nn(-c2ccc3c(c2)OCCO3)n(O)c1=NCc1ccc(F)cc1", "activation": "inactive: -61.6%"},
      {"molecule": "CC(=O)c1cccc(NC(=S)NNC(=O)c2ccc(C)c([N+](=O)[O-])c2)c1", "Potency": "inconclusive: 126 µM [activator, single point]"},
      {"molecule": "CCN1C(=NCCc2ccc(Br)cc2)N[C@@H](c2ccccc2)[C@H](C(=O)OC)[C@H]1C", "activation": "inactive: -1.53%"},
      {"molecule": "O=C(N/N=C/C(Br)=C/c1ccccc1)c1cc(-c2ccco2)[nH]n1", "activation": "inactive: -20.3%"},
      {"molecule": "CC1CCN(CC(O)COc2ccc(-c3ccccc3)cc2)CC1", "note": "(configuration not stated)", "Potency": "inconclusive: 126 µM [activator, single point]"},
      {"molecule": "CCCC(=O)Nc1nn(CCC)c2nc3ccccc3cc12", "Potency": "inconclusive: 20 µM [activator, single point]"},
      {"molecule": "O=C(O)c1ccc2c(c1)C(=O)N([C@H](Cc1cccc3ccccc13)C(=O)O)C2=O", "activation": "inconclusive: 40.7% [activator]"},
      {"molecule": "CC(=O)C(C(c1ccccc1)c1c[nH]c2ccccc12)[N+](=O)[O-]", "note": "(configuration not stated)", "activation": "inactive: -19.8%"},
      {"molecule": "COCCn1cnnc1SCC(=O)Nc1cccc(S(=O)(=O)N(C)c2ccccc2)c1", "activation": "inactive: -12.7%"},
      {"molecule": "COc1ccc(NC(=S)NCc2ccccc2)c(OC)c1", "outcome": "inactive"},
      {"molecule": "CCN(CC)CCN(Cc1cc2cc(C)c(C)cc2[nH]c1=O)C(=S)NCc1ccco1", "outcome": "inactive"},
      {"molecule": "Cc1c(N=C2SCC(=O)N2/N=C/c2ccccc2Cl)c(=O)n(-c2ccccc2)n1C", "Potency": "inconclusive: 3.55 µM [activator, partial curve]"},
      {"molecule": "CCCCCNC(=O)C1CCC(Cn2c(=O)c3sccc3n(CC(=O)N3CCCC3)c2=O)CC1", "note": "(configuration not stated)", "Potency": "inconclusive: 63.1 µM [activator, partial curve, poor fit]"},
      {"molecule": "C(=N\\Nc1nc(Nc2ccccc2)nc(Nc2ccccc2)n1)/c1cccnc1", "activation": "inactive: -12.9%"},
      {"molecule": "Cc1cc2n(n1)CCCN2C(=O)Nc1ccccc1F", "Potency": "inconclusive: 126 µM [activator, single point]"},
      {"molecule": "Cc1ccc(C(=O)Nc2nnc(SCc3cc(=O)c4c(C)ccc(C)c4[nH]3)s2)cc1", "activation": "inactive: -56.6%"},
      {"molecule": "CC(C)CCn1nc(C(=O)Nc2nc3c(s2)CCCC3)c2ccccc2c1=O", "Potency": "inconclusive: 8.91 µM [activator, full curve, poor fit]"},
      {"molecule": "Cc1c(F)cccc1NC(=O)CCC(=O)O", "Potency": "inconclusive: 39.8 µM [activator, single point]"},
      {"molecule": "CCn1cc(S(=O)(=O)c2ccc(C)cc2C)c(=O)c2cc(F)c(N3CCCCC3)cc21", "activation": "inactive: -16.4%"},
      {"molecule": "C[C@H]1C(=O)N(C)CCN1C(=O)c1cccc(OC2CCN(CC(C)(C)C)CC2)c1", "Potency": "inconclusive: 3.55 µM [activator, full curve, poor fit]"},
      {"molecule": "O=S(=O)(NCC(O)c1ccccc1)c1cc(Cl)sc1Cl", "note": "(configuration not stated)", "Potency": "inconclusive: 0.767 µM [activator, full curve, poor fit]"},
      {"molecule": "CCC(C)NC(=O)CN1C(=O)NC2NC(=O)NC21", "note": "(configuration not stated)", "Potency": "inconclusive: 126 µM [activator, single point]"},
      {"molecule": "O=c1[nH]c2ccc([N+](=O)[O-])cc2nc1/C=C(\\O)c1ccccc1", "outcome": "inactive"},
      {"molecule": "Cc1ccc(NC(=O)[C@@H](c2ccccc2)N2Cc3ccccc3C2=O)cc1F", "activation": "inactive: -17.3%"},
      {"molecule": "O=C(CSc1ncc2c(n1)-c1ccc(Cl)cc1N(Cc1ccccc1)S2(=O)=O)Nc1ccccc1C(F)(F)F", "outcome": "inactive"},
      {"molecule": "CC(C)OCCCN1C(=O)c2[nH]nc(-c3ccccc3O)c2C1c1cccc(OCc2ccccc2)c1", "note": "(configuration not stated)", "activation": "inactive: -14%"},
      {"molecule": "Cc1cc(C)cc(-n2ccnc2SCC(=O)Nc2nc3ccc(C)cc3s2)c1", "activation": "inactive: -12.2%"},
      {"molecule": "c1ccc2oc(-c3[nH]ncc3CN3CCC(N4CCSCC4)CC3)cc2c1", "Potency": "inconclusive: 22.4 µM [activator, partial curve, poor fit]"},
      {"molecule": "CCCN(Cc1cccs1)C(=O)Nc1ccc(F)c(Cl)c1", "activation": "inactive: -75.3%"},
      {"molecule": "COCCCn1c(=S)[nH]c(C)c(C)c1=O", "Potency": "inconclusive: 126 µM [activator, single point]"},
      {"molecule": "CCOC(=O)Cc1ccc(Nc2nc3cc(-c4ccccc4C)sc3c(=O)n2C)cc1", "Potency": "inconclusive: 141 µM [activator, single point]"},
      {"molecule": "Cc1ccc(C)c(NC(=O)Cn2c(=O)n(Cc3ccc4c(c3)OCO4)c(=O)c3ccccc32)c1", "Potency": "inconclusive: 20 µM [activator, partial curve, poor fit]"},
      {"molecule": "COc1cc(OC)c(CN2CCN(c3ccc(F)cc3)CC2)cc1Br", "activation": "inconclusive: 50.3% [activator] [at 57.5 µM]"},
      {"molecule": "CC(=O)Nc1ccc2c(c1)nc1n2CCN(C(C)c2ccccc2)C1", "note": "(configuration not stated)", "Potency": "inconclusive: 3.98 µM [activator, partial curve]"},
      {"molecule": "CC(C)(C)OC(=O)N1CCC(c2c(C(=O)N3CCCCC3)cnn2-c2ccc(F)cc2F)CC1", "Potency": "inconclusive: 35.5 µM [activator, partial curve]"},
      {"molecule": "CN(C)CCC(=O)C(Cc1ccccc1)c1ccccc1", "note": "(configuration not stated)", "activation": "inactive: -3.95%"},
      {"molecule": "Cc1ccc(-n2ncc3c(=O)n(Cc4ccccc4C)cnc32)cc1C", "Potency": "inconclusive: 100 µM [activator, single point]"},
      {"molecule": "COCCCn1c(SCC(=O)OC2CCCCC2)nnc1-c1cccs1", "Potency": "active: 0.282 µM"},
      {"molecule": "COCc1cc(C)nc(SCC[N+](C)(C)CC(=O)c2ccccc2)c1C#N", "outcome": "inactive"},
      {"molecule": "O=c1[nH]cnc2ncc(-c3ccc(O)cc3)nc12", "Potency": "inconclusive: 141 µM [activator, single point]"},
      {"molecule": "Cc1cc(C)cc(NC(=O)COC(=O)CCC2CCCC2)c1", "activation": "inconclusive: 45.9% [activator]"},
      {"molecule": "COc1ccc(CNC(=O)CN(Cc2ccc(Cl)cc2)S(=O)(=O)c2ccccc2)cc1", "Potency": "inconclusive: 3.55 µM [activator, single point]"}
    ]}
  ]
}
